Results published in the supplement of paper PMC10849652.
Some of the results follow. Residues, ends and D or L forms follow the SMILES beside them. *: point of attachment. Cbz = O=C(OCc1ccccc1)*

Amino acid sequences for entries named in this document (tags omitted). A change or cut given only in a name is not applied to a line headed by its entry.
UniProt P35244: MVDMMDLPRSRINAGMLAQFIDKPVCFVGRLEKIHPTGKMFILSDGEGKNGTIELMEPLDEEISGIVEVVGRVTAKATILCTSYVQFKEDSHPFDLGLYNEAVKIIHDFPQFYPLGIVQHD
UniProt P04843: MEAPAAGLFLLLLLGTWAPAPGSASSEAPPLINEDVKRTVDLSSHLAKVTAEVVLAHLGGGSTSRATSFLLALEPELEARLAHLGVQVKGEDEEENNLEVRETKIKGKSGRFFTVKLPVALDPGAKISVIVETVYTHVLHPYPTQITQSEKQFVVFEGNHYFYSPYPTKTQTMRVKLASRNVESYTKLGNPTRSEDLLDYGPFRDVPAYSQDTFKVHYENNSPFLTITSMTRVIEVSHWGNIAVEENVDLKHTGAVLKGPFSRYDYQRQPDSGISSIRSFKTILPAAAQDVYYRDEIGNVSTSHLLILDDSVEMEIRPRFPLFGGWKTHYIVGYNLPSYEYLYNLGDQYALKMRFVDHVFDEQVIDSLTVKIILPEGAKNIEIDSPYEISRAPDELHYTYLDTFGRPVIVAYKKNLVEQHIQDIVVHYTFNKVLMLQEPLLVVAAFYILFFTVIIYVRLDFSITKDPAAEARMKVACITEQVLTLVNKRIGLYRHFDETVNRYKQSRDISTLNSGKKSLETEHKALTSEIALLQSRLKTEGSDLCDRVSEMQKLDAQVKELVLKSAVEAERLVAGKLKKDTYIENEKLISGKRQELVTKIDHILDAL
UniProt P10155: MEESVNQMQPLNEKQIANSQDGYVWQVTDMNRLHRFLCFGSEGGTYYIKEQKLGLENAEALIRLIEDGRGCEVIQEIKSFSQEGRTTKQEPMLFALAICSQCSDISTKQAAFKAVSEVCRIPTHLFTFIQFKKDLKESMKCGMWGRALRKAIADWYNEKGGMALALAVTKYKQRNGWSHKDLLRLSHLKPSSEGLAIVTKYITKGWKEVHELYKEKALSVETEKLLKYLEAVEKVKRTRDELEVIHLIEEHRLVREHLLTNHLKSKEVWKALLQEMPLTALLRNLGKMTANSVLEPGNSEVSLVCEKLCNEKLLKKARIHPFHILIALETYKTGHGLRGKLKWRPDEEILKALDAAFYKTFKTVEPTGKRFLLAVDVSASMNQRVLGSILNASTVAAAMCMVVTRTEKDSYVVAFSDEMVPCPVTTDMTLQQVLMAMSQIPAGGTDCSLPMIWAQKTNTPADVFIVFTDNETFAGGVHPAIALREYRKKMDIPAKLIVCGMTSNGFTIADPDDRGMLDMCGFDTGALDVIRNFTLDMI

Tests used:
Experiment in all cases: log2 fold change, soluble protein after heating vs DMSO (PISA); higher = thermal stabilisation; K562 cells, 10 uM, 30 min; active = over 0.2 and 3.5 SD of the protein, either way, in both replicates (recomputed)
[1] = compound: C#Cc1cccc(Nc2ncnc3cc(OCCOC)c(OCCOC)cc23)c1 [erlotinib]
In short: (§1)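 Soluble protein was quantified by TMTpro 16plex LC-MS/MS after channel sums were equalised. It was obtained as the supernatant after 21,000xg for 90 min from pooled aliquots of K562 cells (2×10^6 cells/mL, 10 μM compound, 30 min) heated for 3 min across 48°C-58°C and extracted in PBS with 0.5% NP-40 at 4°C. Thermal stability values are relative to control samples and come from duplicates. They are given as log2 fold changes.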

[2] = compound: C/C(=N\NC(=O)C1=CC(=CC=C1)S(=O)(=O)N2CCOCC2)/C3=C(C=CC(=C3)Cl)O
In short: as §1

[3] = compound: C1=CC(=C(C=C1Cl)C2=NC3=NC=CN=C3C(=N2)NC4=CC=NC=C4)F
In short: as §1

[4] = compound: C1=CC(=CC=C1C2=NC3=C(N2)C=C(C=C3)C(=O)N)OC4=CC=C(C=C4)Cl
In short: as §1

[5] = compound: C1=CC2=C(C=CC(=C2)/C=C\3/C(=O)NC(=NCC4=CC=CS4)S3)N=C1
In short: as §1

[6] = compound: C1=CC2=NC=CN=C2C=C1/C=C/3\C(=O)NC(=O)S3
In short: as §1

[7] = compound: C1=CC=C(C=C1)C2=NC(=C(N2)C3=CC=NC=C3)C4=CC(=C(C=C4)Cl)O
In short: as §1

[8] = compound: C1=CC=C2C(=C1)C3=NNC4=CC=CC(=C43)C2=O
In short: as §1

[9] = compound: C1CCN(C1)C(=O)NC2=CC=CC(=C2)NC3=NC=C(C(=N3)NCCC4=CN=CN4)Br
In short: as §1

[10] = compound: C1CN(CCC1(CC2=CC=C(C=C2)Cl)N)C3=NC=NC4=C3C=CN4
In short: as §1

[11] = compound: C1COCCN1CCN2C3=CC=CC=C3N=C2NC(=O)C4=CC(=CC=C4)[N+](=O)[O-] [IRAK-1-4 Inhibitor I]
In short: as §1

[12] = compound: C=CC(=O)N1CCC[C@@H](n2nc(-c3ccc(Oc4ccccc4)cc3)c3c(N)ncnc32)C1 [ibrutinib]
In short: as §1

[13] = compound: CC(=O)c1cnc2ccc(-c3cc(Cl)c(O)c(Cl)c3)nc2c1N[C@H]1CC[C@H](CN(C)C)CC1
In short: as §1

[14] = compound: CC(C)(C)Cn1c(N)nc2ccc(-c3[nH]c(C(C)(C)C)nc3-c3ccc(F)cc3)nc21 [ralimetinib]
In short: as §1

[15] = compound: CC(C)(O)CC(=O)NCCn1ccc2ncnc(Nc3ccc(Oc4cccc(C(F)(F)F)c4)c(Cl)c3)c21
In short: as §1

[16] = compound: CC(C)C1=C2N=C(C=C(N2N=C1)NCC3=CC=CC=C3)NCCCCCCN
In short: as §1

[17] = compound: CC(C)C[C@@H](C=O)NC(=O)[C@H](CC(C)C)NC(=O)[C@H](CC(C)C)NC(=O)OCc1ccccc1
In short: as §1

[18] = compound: CC(C)N(C[C@H]1O[C@@H](n2cnc3c(N)ncnc32)[C@H](O)[C@@H]1O)[C@H]1C[C@@H](CCc2nc3cc(C(C)(C)C)ccc3[nH]2)C1 [pinometostat]
In short: as §1

[19] = compound: CC1=C(C2=C(C=C1)C(=O)C3=CC=CC=C3N2CCCN)C
In short: as §1

[20] = compound: CC1=C(C(CC(=O)N1)C2=CC=C(C=C2)C(F)(F)F)C(=O)NC3=C(C=C4C(=C3)C=NN4)F
In short: as §1

Row | Target | log2 fold change [1] | log2 fold change [2] | log2 fold change [3] | log2 fold change [4] | log2 fold change [5] | log2 fold change [6] | log2 fold change [7] | log2 fold change [8] | log2 fold change [9] | log2 fold change [10] | log2 fold change [11] | log2 fold change [12] | log2 fold change [13] | log2 fold change [14] | log2 fold change [15] | log2 fold change [16] | log2 fold change [17] | log2 fold change [18] | log2 fold change [19] | log2 fold change [20]
1 | RPA3 (UniProt P35244) | inactive: -0.007 | inactive: 0.156 | inactive: 0.084 | inactive: 0.008 | inactive: -0.058 | inactive: -0.007 | inactive: 0.115 | inactive: 0.032 | inactive: -0.128 | inactive: -0.027 | inactive: 0.02 | inactive: 0.029 | inactive: 0.016 | inactive: 0.038 | inactive: -0.097 | inactive: -0.025 | inactive: -0.137 | inactive: 0.016 | inactive: 0.129 | 
2 | RPS18 (UniProt P62269) | inactive: -0.126 | inactive: -0.088 | inactive: -0.211 | inactive: 0.039 | inactive: -0.037 | inactive: -0.089 | inactive: -0.024 | inactive: 0 | inactive: 0.097 | inactive: -0.144 | inactive: -0.099 | inactive: 0.053 | inactive: 0.052 | inactive: 0.055 | inactive: 0.06 | inactive: -0.043 | inactive: 0.054 | inactive: 0.149 | active: -0.531 | 
3 | RPS14 (UniProt P62263) | inactive: -0.166 | inactive: -0.077 | inactive: -0.124 | inactive: 0.027 | inactive: -0.149 | inactive: -0.04 | inactive: 0.039 | inactive: 0.045 | inactive: 0.031 | inactive: -0.126 | inactive: -0.178 | inactive: 0.03 | inactive: 0.079 | inactive: 0.135 | inactive: -0.014 | inactive: -0.016 | inactive: 0.003 | inactive: -0.013 | active: -0.586 | 
4 | RPN1 (UniProt P04843) | inactive: 0 | inactive: 0.014 | inactive: 0.049 | inactive: -0.033 | inactive: 0.012 | inactive: 0.013 | inactive: -0.004 | inactive: -0.007 | inactive: 0.025 | inactive: -0.002 | inactive: 0.045 | inactive: -0.019 | inactive: -0.023 | inactive: -0.048 | inactive: -0.065 | inactive: -0.086 | inactive: -0.01 | inactive: -0.005 | inactive: 0.054 | inactive: -0.001
5 | RPL35 (UniProt P42766) | inactive: -0.235 | inactive: -0.248 | inactive: -0.703 | inactive: 0.048 | inactive: -0.157 | inactive: -0.077 | inactive: -0.12 | inactive: -0.016 | inactive: 0.123 | inactive: -0.223 | inactive: -0.171 | inactive: 0.07 | inactive: 0.108 | inactive: 0.275 | inactive: 0.112 | inactive: -0.032 | inactive: 0.194 | inactive: 0.384 | inactive: -0.676 | inactive: 0.063
6 | RPS21 (UniProt P63220) | inactive: -0.045 | inactive: -0.062 | inactive: -0.071 | inactive: 0.017 | inactive: -0.056 | inactive: 0.079 | inactive: -0.066 | inactive: -0.027 | inactive: 0.033 | inactive: 0.017 | inactive: -0.004 | inactive: -0.035 | inactive: 0.055 | inactive: -0.014 | inactive: 0.069 | inactive: 0.056 | inactive: 0.075 | inactive: -0.022 | inactive: -0.02 | 
7 | RPS20 isoform 2 (UniProt P60866) | inactive: -0.129 | inactive: -0.082 | inactive: -0.171 | inactive: 0.023 | inactive: -0.004 | inactive: -0.068 | inactive: -0.04 | inactive: -0.025 | inactive: 0.05 | inactive: -0.159 | inactive: -0.103 | inactive: 0.012 | inactive: 0.02 | inactive: 0.041 | inactive: 0.046 | inactive: -0.03 | inactive: 0.012 | inactive: 0.123 | active: -0.368 | 
8 | RO60 (UniProt P10155) | inactive: -0.028 | inactive: 0.005 | inactive: 0.027 | inactive: 0.031 | inactive: -0.001 | inactive: -0.028 | inactive: -0.034 | inactive: -0.046 | inactive: 0.021 | inactive: 0.023 | inactive: -0.006 | inactive: 0.062 | inactive: 0.004 | inactive: -0.047 | inactive: -0.024 | inactive: 0.049 | inactive: -0.021 | inactive: -0.047 | inactive: -0.073 | inactive: 0.045
